Test results as given in the supplement of paper PMC10849652.
This is one part of the list.

Chains of the proteins cited; added tags and fusions are not shown. Lines headed by an entry give the natural chain unless they say otherwise; changes in a name come on top.
UniProt O76070, whole entry, looked up: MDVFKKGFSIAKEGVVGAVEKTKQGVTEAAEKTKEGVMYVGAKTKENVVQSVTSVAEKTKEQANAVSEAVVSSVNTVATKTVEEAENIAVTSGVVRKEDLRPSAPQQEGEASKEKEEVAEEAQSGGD
UniProt O00161: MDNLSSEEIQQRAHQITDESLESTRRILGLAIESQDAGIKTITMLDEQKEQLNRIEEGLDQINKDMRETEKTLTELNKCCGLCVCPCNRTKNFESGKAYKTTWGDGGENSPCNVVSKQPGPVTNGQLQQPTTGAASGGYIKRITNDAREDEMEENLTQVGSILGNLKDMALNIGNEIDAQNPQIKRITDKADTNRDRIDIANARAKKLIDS
UniProt Q96H20: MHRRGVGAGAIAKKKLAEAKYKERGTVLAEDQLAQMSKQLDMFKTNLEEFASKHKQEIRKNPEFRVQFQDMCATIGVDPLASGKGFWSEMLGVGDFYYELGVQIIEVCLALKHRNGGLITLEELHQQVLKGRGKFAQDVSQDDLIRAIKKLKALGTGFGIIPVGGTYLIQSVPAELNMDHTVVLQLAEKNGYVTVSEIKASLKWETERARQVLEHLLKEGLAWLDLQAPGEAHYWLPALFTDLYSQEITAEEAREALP
UniProt P08579, whole entry, looked up: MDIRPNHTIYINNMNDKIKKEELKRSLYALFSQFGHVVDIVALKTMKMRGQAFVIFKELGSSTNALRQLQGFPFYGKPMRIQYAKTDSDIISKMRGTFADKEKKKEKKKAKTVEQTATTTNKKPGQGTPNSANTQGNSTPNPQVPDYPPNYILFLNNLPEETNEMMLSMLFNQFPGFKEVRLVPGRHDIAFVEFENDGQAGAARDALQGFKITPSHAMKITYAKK
UniProt Q15506: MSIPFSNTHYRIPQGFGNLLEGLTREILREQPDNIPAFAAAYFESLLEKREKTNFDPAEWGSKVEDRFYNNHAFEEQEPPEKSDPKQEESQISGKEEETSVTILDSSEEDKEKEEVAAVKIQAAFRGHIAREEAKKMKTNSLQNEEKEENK
UniProt O75643, whole entry, looked up: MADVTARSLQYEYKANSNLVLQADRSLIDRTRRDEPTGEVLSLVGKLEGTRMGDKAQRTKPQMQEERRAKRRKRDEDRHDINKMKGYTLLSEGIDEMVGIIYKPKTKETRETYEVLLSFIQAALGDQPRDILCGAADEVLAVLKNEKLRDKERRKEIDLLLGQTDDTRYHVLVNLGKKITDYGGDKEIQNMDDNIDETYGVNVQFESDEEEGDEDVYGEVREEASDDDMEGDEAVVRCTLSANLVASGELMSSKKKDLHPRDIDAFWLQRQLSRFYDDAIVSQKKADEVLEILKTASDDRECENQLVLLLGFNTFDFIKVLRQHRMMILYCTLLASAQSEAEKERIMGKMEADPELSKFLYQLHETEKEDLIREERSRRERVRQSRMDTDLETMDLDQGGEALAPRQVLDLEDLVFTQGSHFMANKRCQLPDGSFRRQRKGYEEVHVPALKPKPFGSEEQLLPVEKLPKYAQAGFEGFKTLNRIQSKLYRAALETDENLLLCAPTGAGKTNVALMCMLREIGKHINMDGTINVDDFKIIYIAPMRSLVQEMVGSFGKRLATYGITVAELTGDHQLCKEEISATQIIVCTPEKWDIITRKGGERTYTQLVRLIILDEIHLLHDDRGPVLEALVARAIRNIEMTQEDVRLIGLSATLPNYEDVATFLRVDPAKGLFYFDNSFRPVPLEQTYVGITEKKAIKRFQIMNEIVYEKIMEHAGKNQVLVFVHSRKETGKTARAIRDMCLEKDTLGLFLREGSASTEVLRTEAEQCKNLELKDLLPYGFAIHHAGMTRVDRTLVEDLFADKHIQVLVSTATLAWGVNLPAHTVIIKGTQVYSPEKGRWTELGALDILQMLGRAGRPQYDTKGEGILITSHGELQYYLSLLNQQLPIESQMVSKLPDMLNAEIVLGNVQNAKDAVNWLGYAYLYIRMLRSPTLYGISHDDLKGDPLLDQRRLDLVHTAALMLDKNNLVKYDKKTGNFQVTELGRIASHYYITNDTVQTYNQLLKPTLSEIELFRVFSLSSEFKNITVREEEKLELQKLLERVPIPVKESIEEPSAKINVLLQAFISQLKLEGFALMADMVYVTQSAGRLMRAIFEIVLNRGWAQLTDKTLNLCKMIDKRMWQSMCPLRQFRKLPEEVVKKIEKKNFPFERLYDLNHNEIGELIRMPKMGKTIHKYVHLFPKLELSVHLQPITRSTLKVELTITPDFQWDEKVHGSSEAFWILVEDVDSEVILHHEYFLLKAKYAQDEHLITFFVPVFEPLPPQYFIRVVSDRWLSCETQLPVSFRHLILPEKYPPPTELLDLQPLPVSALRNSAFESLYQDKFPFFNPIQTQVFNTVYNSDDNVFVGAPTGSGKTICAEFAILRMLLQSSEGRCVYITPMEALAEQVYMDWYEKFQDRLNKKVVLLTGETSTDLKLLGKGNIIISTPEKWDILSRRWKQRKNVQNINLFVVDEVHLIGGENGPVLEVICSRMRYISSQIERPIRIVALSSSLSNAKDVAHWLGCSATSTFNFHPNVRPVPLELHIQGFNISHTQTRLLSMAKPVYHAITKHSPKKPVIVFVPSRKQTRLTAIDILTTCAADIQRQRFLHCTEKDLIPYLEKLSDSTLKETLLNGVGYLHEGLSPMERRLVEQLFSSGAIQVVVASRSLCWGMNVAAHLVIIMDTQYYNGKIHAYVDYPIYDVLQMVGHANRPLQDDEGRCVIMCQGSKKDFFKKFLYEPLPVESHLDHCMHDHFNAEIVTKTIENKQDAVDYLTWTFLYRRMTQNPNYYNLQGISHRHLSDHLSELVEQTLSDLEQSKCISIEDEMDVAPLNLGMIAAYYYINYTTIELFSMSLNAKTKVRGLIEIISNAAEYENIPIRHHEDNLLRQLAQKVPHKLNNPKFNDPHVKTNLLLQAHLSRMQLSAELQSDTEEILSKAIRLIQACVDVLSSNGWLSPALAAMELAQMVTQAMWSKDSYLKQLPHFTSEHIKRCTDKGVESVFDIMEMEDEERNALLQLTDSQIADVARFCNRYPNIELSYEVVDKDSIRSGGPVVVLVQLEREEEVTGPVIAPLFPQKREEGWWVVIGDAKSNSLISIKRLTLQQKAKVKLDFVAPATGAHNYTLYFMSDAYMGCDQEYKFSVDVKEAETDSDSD
UniProt P62306, whole entry, looked up: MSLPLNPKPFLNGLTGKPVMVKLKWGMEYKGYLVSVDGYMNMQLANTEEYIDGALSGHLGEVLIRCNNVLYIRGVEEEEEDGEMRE
UniProt O95721: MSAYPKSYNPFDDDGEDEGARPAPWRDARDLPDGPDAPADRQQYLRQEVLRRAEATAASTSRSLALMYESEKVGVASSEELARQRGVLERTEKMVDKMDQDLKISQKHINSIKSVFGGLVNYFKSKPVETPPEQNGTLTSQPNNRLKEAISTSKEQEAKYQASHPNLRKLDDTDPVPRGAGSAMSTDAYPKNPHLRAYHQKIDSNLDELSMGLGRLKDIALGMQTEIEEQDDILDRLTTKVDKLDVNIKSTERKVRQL
UniProt Q8WU79: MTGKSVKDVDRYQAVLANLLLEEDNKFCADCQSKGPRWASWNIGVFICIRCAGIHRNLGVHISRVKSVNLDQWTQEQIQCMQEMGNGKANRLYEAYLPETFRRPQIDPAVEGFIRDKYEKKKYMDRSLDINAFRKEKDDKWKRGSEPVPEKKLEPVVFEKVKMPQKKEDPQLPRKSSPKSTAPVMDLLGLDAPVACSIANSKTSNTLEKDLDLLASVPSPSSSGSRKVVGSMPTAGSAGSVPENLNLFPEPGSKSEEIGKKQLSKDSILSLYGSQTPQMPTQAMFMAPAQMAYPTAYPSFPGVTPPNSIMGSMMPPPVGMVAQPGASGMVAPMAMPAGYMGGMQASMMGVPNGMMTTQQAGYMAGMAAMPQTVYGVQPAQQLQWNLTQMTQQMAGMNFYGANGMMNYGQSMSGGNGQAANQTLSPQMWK
UniProt P62304, whole entry, looked up: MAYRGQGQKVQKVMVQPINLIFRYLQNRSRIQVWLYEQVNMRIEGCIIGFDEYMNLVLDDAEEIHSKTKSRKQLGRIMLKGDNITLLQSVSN
UniProt Q99523, whole entry, looked up: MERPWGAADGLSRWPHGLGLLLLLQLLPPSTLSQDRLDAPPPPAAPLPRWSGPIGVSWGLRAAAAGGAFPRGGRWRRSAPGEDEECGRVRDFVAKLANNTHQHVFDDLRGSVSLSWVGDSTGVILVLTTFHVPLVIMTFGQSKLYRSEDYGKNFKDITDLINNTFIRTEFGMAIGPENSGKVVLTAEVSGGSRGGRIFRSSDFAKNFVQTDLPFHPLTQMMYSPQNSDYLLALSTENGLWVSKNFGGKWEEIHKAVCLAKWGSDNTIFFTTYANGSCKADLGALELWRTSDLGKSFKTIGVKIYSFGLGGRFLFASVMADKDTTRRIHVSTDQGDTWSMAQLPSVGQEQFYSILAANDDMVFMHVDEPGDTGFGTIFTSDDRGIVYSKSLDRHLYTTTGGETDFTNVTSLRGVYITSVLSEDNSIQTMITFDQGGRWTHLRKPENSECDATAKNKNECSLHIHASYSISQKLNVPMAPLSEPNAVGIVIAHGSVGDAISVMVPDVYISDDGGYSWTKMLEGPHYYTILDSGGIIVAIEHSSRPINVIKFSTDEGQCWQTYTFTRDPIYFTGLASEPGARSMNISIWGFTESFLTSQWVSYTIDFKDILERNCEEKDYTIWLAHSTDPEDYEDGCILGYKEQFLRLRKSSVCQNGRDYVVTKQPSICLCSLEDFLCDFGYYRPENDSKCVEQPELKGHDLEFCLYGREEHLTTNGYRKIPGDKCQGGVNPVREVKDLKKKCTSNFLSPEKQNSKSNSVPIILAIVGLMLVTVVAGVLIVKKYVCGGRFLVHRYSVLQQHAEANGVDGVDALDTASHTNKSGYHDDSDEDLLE
UniProt Q92581: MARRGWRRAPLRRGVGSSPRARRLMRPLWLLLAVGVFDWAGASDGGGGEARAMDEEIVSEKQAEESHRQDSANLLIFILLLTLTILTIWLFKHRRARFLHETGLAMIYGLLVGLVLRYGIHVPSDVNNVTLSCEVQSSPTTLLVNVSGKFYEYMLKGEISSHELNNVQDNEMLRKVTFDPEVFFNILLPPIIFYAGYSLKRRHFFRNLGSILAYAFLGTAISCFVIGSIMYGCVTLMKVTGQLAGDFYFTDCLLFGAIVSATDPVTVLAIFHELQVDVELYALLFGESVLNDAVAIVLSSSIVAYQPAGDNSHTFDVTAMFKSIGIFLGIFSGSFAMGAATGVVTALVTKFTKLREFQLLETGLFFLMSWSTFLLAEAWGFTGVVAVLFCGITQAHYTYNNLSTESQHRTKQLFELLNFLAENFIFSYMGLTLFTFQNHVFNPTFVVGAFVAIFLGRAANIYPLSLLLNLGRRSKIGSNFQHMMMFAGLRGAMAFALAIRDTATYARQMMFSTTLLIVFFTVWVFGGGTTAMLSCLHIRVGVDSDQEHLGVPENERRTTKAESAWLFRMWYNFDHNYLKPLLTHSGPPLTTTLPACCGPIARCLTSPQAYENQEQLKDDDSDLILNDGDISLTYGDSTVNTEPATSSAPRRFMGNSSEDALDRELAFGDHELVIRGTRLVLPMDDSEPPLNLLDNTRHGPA

Legend:
Assay in all cases: log2 fold change, soluble protein after heating vs DMSO (PISA); higher = thermal stabilisation; K562 cells, 10 uM, 30 min; active = over 0.2 and 3.5 SD of the protein, either way, in both replicates (recomputed)
bafetinib = compound: Cc1ccc(NC(=O)c2ccc(CN3CC[C@H](N(C)C)C3)c(C(F)(F)F)c2)cc1Nc1nccc(-c2cncnc2)n1 [bafetinib]
Summary of the method: (§1)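 Aliquots of K562 cells (2×10^6 cells/mL) treated with 10 μM compound for 30 min were heated for 3 min over 48°C-58°C. After pooling and extraction in PBS with 0.5% NP-40 at 4°C, soluble protein from a 21,000xg, 90 min spin was quantified by TMTpro 16plex LC-MS/MS with channel sums equalised. Thermal stability is expressed against control samples, from duplicates, as a log2 fold change.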

[1] = compound: Cc1cccc(CC(=O)N2CCc3c2ccc(-c2cn(C)c4ncnc(N)c24)c3F)n1
Summary of the method: as §1

nilotinib = compound: Cc1cn(-c2cc(NC(=O)c3ccc(C)c(Nc4nccc(-c5cccnc5)n4)c3)cc(C(F)(F)F)c2)cn1 [nilotinib]
Summary of the method: as §1

[2] = compound: Cc1nc(Nc2n[nH]c3c2CN(C(=O)N[C@H](CN(C)C)c2ccccc2)C3(C)C)c2sccc2n1
Summary of the method: as §1

dasatinib = compound: Cc1nc(Nc2ncc(C(=O)Nc3c(C)cccc3Cl)s2)cc(N2CCN(CCO)CC2)n1 [dasatinib]
Summary of the method: as §1

[3] = compound: Cc1ncc(-c2ccnc(Nc3ccc(S(C)(=O)=O)cc3)n2)n1C(C)C
Summary of the method: as §1

[4] = compound: Cn1cc(-c2ccc3c(c2)CCN3C(=O)Cc2cccc(C(F)(F)F)c2)c2c(N)ncnc21
Summary of the method: as §1

[5] = compound: Cn1cc(-c2ccc3nnc(C(F)(F)c4ccc5ncccc5c4)n3n2)cn1
Summary of the method: as §1

tipifarnib = compound: Cn1cncc1[C@@](N)(c1ccc(Cl)cc1)c1ccc2c(c1)c(-c1cccc(Cl)c1)cc(=O)n2C [tipifarnib]
Summary of the method: as §1

mubritinib = compound: FC(F)(F)c1ccc(/C=C/c2nc(COc3ccc(CCCCn4ccnn4)cc3)co2)cc1 [mubritinib]
Summary of the method: as §1

[6] = compound: NC(=O)Nc1cc(-c2cccc(F)c2)sc1C(=O)N[C@H]1CCCNC1
Summary of the method: as §1

[7] = compound: NC(=O)c1cnc(N[C@@H]2CCCC[C@@H]2N)nc1Nc1cccc(-n2nccn2)c1
Summary of the method: as §1

[8] = compound: NC1(c2ccc(-c3nc4ccn5c(=O)[nH]nc5c4cc3-c3ccccc3)cc2)CCC1
Summary of the method: as §1

[9] = compound: NCC(=O)Nc1ccc(-n2nc(C(F)(F)F)cc2-c2ccc3c(ccc4ccccc43)c2)cc1
Summary of the method: as §1

entinostat = compound: Nc1ccccc1NC(=O)c1ccc(CNC(=O)OCc2cccnc2)cc1 [entinostat]
Summary of the method: as §1

vorinostat = compound: O=C(CCCCCCC(=O)Nc1ccccc1)NO [vorinostat]
Summary of the method: as §1

citarinostat = compound: O=C(CCCCCCNC(=O)c1cnc(N(c2ccccc2)c2ccccc2Cl)nc1)NO [citarinostat]
Summary of the method: as §1

silmitasertib = compound: O=C(O)c1ccc2c(c1)nc(Nc1cccc(Cl)c1)c1ccncc12 [silmitasertib]
Summary of the method: as §1

[10] = compound: O=C1NC(=O)C(c2cnc3ccccn23)=C1c1cn2c3c(cc(F)cc13)CN(C(=O)N1CCCCC1)CC2
Summary of the method: as §1

[11] = compound: c1cc(OCCN2CCCCC2)cc(-c2n[nH]c3ccc(-c4nnc[nH]4)cc23)c1
Summary of the method: as §1

Target | log2 fold change (bafetinib) | log2 fold change [1] | log2 fold change (nilotinib) | log2 fold change [2] | log2 fold change (dasatinib) | log2 fold change [3] | log2 fold change [4] | log2 fold change [5] | log2 fold change (tipifarnib) | log2 fold change (mubritinib) | log2 fold change [6] | log2 fold change [7] | log2 fold change [8] | log2 fold change [9] | log2 fold change (entinostat) | log2 fold change (vorinostat) | log2 fold change (citarinostat) | log2 fold change (silmitasertib) | log2 fold change [10] | log2 fold change [11]
SNCG (UniProt O76070) | inactive: -0.019 | inactive: -0.026 | inactive: 0.01 | inactive: 0.038 | inactive: 0.046 | inactive: 0.003 | inactive: 0.01 | inactive: 0.001 | inactive: -0.035 | inactive: 0.014 | inactive: 0.035 | inactive: -0.001 | inactive: 0.024 | inactive: 0.015 | inactive: -0.015 | inactive: -0.006 | inactive: 0.059 | inactive: -0.07 | inactive: -0.03 | inactive: 0.014
SNAP23 (UniProt O00161) | inactive: -0.019 | inactive: -0.012 | inactive: 0.023 | inactive: -0.016 | inactive: 0.055 | inactive: -0.021 | inactive: -0.013 | inactive: 0.007 | inactive: 0.025 | inactive: -0.016 | inactive: -0.018 | inactive: 0.014 | inactive: 0.024 | inactive: 0.028 | inactive: -0.029 | inactive: -0.03 | inactive: -0.015 | inactive: -0.007 | inactive: 0.019 | inactive: -0.06
SNF8 (UniProt Q96H20) | inactive: -0.151 | inactive: 0.04 | inactive: 0.014 | inactive: -0.033 | inactive: 0.006 | inactive: -0.009 | inactive: 0.001 | inactive: -0.004 | inactive: 0.059 | inactive: 0.025 | inactive: -0.008 | inactive: -0.049 | inactive: -0.04 | inactive: -0.01 | inactive: -0.005 | inactive: 0.02 | inactive: 0.009 | inactive: 0.016 | inactive: 0.015 | inactive: -0.017
SNRPB2 (UniProt P08579) | inactive: -0.034 | inactive: -0.081 | inactive: 0.04 | inactive: 0.048 | inactive: 0.075 | inactive: 0.135 | inactive: -0.116 | inactive: -0.025 | inactive: 0.084 | inactive: 0.045 | inactive: 0.047 | inactive: -0.012 | inactive: 0.03 | inactive: 0.038 | inactive: -0.016 | inactive: -0.027 | inactive: 0.023 | inactive: 0.051 | inactive: 0.046 | inactive: -0.034
SMC2 (UniProt O95347) | inactive: 0.016 | inactive: 0 | inactive: -0.05 | inactive: -0.011 | inactive: -0.1 | inactive: 0.053 | inactive: -0.02 | inactive: -0.004 | inactive: -0.044 | inactive: 0.014 | inactive: -0.058 | inactive: 0.001 | inactive: -0.039 | inactive: -0.037 | inactive: 0.045 | inactive: 0.018 | inactive: 0.03 | inactive: 0.097 | inactive: 0.017 | inactive: -0.006
SPA17 (UniProt Q15506) | inactive: -0.063 | inactive: 0.021 | inactive: -0.01 | inactive: 0.03 | inactive: 0.059 | inactive: 0.004 | inactive: -0.119 | inactive: 0.045 | inactive: 0.045 | inactive: 0.073 | inactive: -0.083 | inactive: 0.011 | inactive: -0.203 | inactive: 0.007 | inactive: 0.101 | inactive: -0.182 | inactive: -0.046 | inactive: -0.009 | inactive: -0.034 | inactive: 0.111
SNRNP200 (UniProt O75643) | inactive: 0.087 | inactive: 0.002 | inactive: 0.199 | inactive: 0.148 | inactive: 0.03 | inactive: 0.073 | inactive: -0.087 | inactive: -0.091 | inactive: 0 | inactive: 0.09 | inactive: 0.017 | inactive: -0.029 | inactive: 0.01 | inactive: -0.026 | inactive: -0.051 | inactive: -0.056 | inactive: -0.025 | inactive: 0.081 | inactive: 0.041 | inactive: -0.063
SNRPC (UniProt Q5TAL2) | inactive: 0 | inactive: -0.088 | inactive: 0.135 | inactive: 0.038 | inactive: 0.19 | inactive: 0.061 | inactive: 0.064 | inactive: -0.091 | inactive: 0.034 | inactive: 0.046 | inactive: 0.108 | inactive: 0 | inactive: 0.083 | inactive: 0.178 | inactive: 0.075 | inactive: 0.14 | inactive: 0.068 | inactive: -0.039 | inactive: -0.098 | inactive: 0.106
SNRPF (UniProt P62306) | inactive: -0.026 | inactive: 0.085 | inactive: 0.084 | inactive: -0.006 | inactive: 0.062 | inactive: 0.035 | inactive: -0.134 | inactive: -0.122 | inactive: 0.01 | inactive: -0.015 | inactive: 0.021 | inactive: -0.031 | inactive: 0.133 | inactive: 0.012 | inactive: 0.038 | inactive: -0.003 | inactive: 0.09 | inactive: 0.191 | inactive: 0.011 | inactive: -0.153
SNAP29 (UniProt O95721) | inactive: -0.053 | inactive: -0.059 | inactive: 0.014 | inactive: 0.002 | inactive: 0.01 | inactive: -0.015 | inactive: 0.002 | inactive: -0.007 | inactive: 0.022 | inactive: 0.019 | inactive: 0.022 | inactive: -0.01 | inactive: -0.015 | inactive: 0.017 | inactive: -0.014 | inactive: -0.05 | inactive: 0.025 | inactive: -0.027 | inactive: 0.025 | inactive: -0.015
SMC4 (UniProt Q9NTJ3) | inactive: 0.012 | inactive: 0.008 | inactive: -0.054 | inactive: -0.045 | inactive: -0.101 | inactive: 0.065 | inactive: -0.017 | inactive: 0.011 | inactive: -0.053 | inactive: -0.018 | inactive: -0.053 | inactive: -0.05 | inactive: -0.079 | inactive: -0.046 | inactive: 0.046 | inactive: 0.031 | inactive: 0.048 | inactive: 0.082 | inactive: -0.007 | inactive: -0.043
SMAP2 (UniProt Q8WU79) | inactive: 0.01 | inactive: -0.025 | inactive: -0.078 | inactive: -0.039 | inactive: -0.135 | inactive: 0.044 | inactive: -0.022 | inactive: -0.004 | inactive: -0.014 | inactive: 0.018 | inactive: -0.013 | inactive: 0.024 | inactive: -0.043 | inactive: -0.069 | inactive: -0.01 | inactive: 0.002 | inactive: 0.056 | inactive: 0.06 | inactive: -0.122 | inactive: -0.028
SNRPB isoform 3 (UniProt P14678) | inactive: 0.064 | inactive: 0.021 | inactive: 0.058 | inactive: 0.047 | inactive: 0.133 | inactive: 0.151 | inactive: -0.085 | inactive: -0.069 | inactive: 0.061 | inactive: -0.054 | inactive: 0.042 | inactive: 0.09 | inactive: 0.078 | inactive: 0.099 | inactive: -0.073 | inactive: -0.061 | inactive: -0.021 | inactive: 0.073 | inactive: 0.153 | inactive: -0.036
SNRPE (UniProt P62304) | inactive: -0.02 | inactive: -0.03 | inactive: -0.009 | inactive: -0.02 | inactive: 0.084 | inactive: 0.032 | inactive: -0.029 | inactive: -0.002 | inactive: 0.026 | inactive: 0.006 | inactive: -0.006 | inactive: 0.001 | inactive: 0.043 | inactive: 0.009 | inactive: -0.046 | inactive: 0.011 | inactive: 0.009 | inactive: 0.036 | inactive: 0.083 | inactive: -0.038
SORT1 (UniProt Q99523) | active: -0.494 | inactive: -0.011 | inactive: 0.041 | inactive: -0.023 | inactive: 0.02 | inactive: -0.122 | inactive: 0.018 | inactive: -0.026 | inactive: 0.076 | inactive: 0.045 | inactive: -0.005 | inactive: -0.032 | active: -0.687 | inactive: 0.038 | inactive: -0.017 | inactive: -0.002 | inactive: 0.073 | inactive: 0.006 | inactive: 0.004 | inactive: -0.139
SLC9A6 isoform 2 (UniProt Q92581) | inactive: -0.049 | inactive: 0.012 | inactive: 0.039 | inactive: 0.011 | inactive: 0.017 | inactive: -0.002 | inactive: -0.019 | inactive: 0.026 | inactive: 0.047 | inactive: 0.033 | inactive: -0.021 | inactive: 0.016 | inactive: -0.091 | inactive: -0.02 | inactive: -0.017 | inactive: -0.078 | inactive: 0.025 | inactive: 0.027 | inactive: -0.021 | inactive: -0.073

Exported in CSV form: entries from further up
Target,log2 fold change (bafetinib),log2 fold change [1],log2 fold change (nilotinib),log2 fold change [2],log2 fold change (dasatinib),log2 fold change [3],log2 fold change [4],log2 fold change [5],log2 fold change (tipifarnib),log2 fold change (mubritinib),log2 fold change [6],log2 fold change [7],log2 fold change [8],log2 fold change [9],log2 fold change (entinostat),log2 fold change (vorinostat),log2 fold change (citarinostat),log2 fold change (silmitasertib),log2 fold change [10],log2 fold change [11]
SMC2 (UniProt O95347),inactive: 0.016,inactive: 0,inactive: -0.05,inactive: -0.011,inactive: -0.1,inactive: 0.053,inactive: -0.02,inactive: -0.004,inactive: -0.044,inactive: 0.014,inactive: -0.058,inactive: 0.001,inactive: -0.039,inactive: -0.037,inactive: 0.045,inactive: 0.018,inactive: 0.03,inactive: 0.097,inactive: 0.017,inactive: -0.006
SPA17 (UniProt Q15506),inactive: -0.063,inactive: 0.021,inactive: -0.01,inactive: 0.03,inactive: 0.059,inactive: 0.004,inactive: -0.119,inactive: 0.045,inactive: 0.045,inactive: 0.073,inactive: -0.083,inactive: 0.011,inactive: -0.203,inactive: 0.007,inactive: 0.101,inactive: -0.182,inactive: -0.046,inactive: -0.009,inactive: -0.034,inactive: 0.111
